From patent EP2698384A1, “Detection of synthetic cannabinoids” (priority 2012, dated 2014)

System: Antibody to Immunogen III
Format: binding, sheep
Conditions: standard curve
Protocol: The wells of an enhanced binding 96 well polystyrene microtiter plate were coated with IgG fraction of antiserum raised to Immunogen VI, diluted in 10mM Tris, pH8.5 (125µl/well). The appropriate antibody coating dilution was determined using standard ELISA checkerboard techniques. The plate was incubated overnight at 4°C, washed 4 times over 10 minutes with Tris buffered saline containing Tween 20 (TBST) and tapped dry. Standard solutions of RCS-4 were prepared in TBST at 0, 0.3125, 0.625, 1.25, 2.5, 5, 10 and 20ng/ml, and 50µl of each was added to the appropriate wells (see figure 1). 75µl of conjugate (appropriate hapten-HRP) diluted in Tris buffer (pH 7.2) containing EDTA, D-mannitol, sucrose, thimerosal and BSA, was added to each of the wells. The appropriate dilution of conjugate was also determined using standard ELISA checkerboard techniques. The plate was incubated at 25°C for 1 hour. Excess unbound conjugate was removed by washing 6 times over a 10 minute period with TBST. 125µl oftetramethylbenzidine (TMB) substrate solution was added to each well of the plate that was then incubated for 20 minutes in the dark at room temperature. The reaction was terminated by addition of 125µl 0.2M H2SO4 to each well. The absorbance was then measured at 450nm using a microtiter plate reader. The data are inputted to a computer program called 'KC Junior'. It is a 4 parameter fit curve and allow the calculatation of concentrations between the standard runs. This program is used to calculate the IC50s by dividing the 0ng/ml OD value by 2 and obtaining the concentration value from the curve for this OD.
In a similar manner to that described above, the wells of a 96-well microtiter plate were coated with the IgG fraction of the antiserum raised to Immunogens I, II or III. Standard solutions (JWH-250 for Immunogen III) were applied at 0, 0.625, 1.25, 2.5, 5, 10, 20 and 40ng/ml and conjugate was employed as detection reagent.
The data set our in Tables 3 and 4 are generated using antibodies raised against the indicated Immunogens in a competitive binding assay with the indicated tracers, using the indicated standards: Table 2
In order to determine the specificity of the competitive ELISAs, standard solutions of a range of structurally similar synthetic cannabinoids and their metabolites were prepared in TBST. Using the calibration curves generated and employing a single level of cross reactants, these were used to determine the cross-reactivity of each immunoassay with these substances. Table 4: Cross reactivity of the competitive ELISAs for synthetic cannabinoids and their metabolites

CCCCCn1cc(C(=O)Cc2ccccc2OC)c2ccccc21 [JWH-250, 2-(2-methoxyphenyl)-1-(1-pentyl-1H-indol-3-yl)ethanone]
A450 (JWH-250 1 ng/ml (first row printed 1)): 1.557 | A450 (JWH-250 1 ng/ml (second row printed 1)): 1.287 | A450 (JWH-250 3 ng/ml): 1.0925 | A450 (JWH-250 5 ng/ml): 0.796 | A450 (JWH-250 10 ng/ml): 0.6905 | A450 (JWH-250 20 ng/ml): 0.5415 | A450 (JWH-250 40 ng/ml): 0.4165

Like-named read-outs stand apart in the source and are kept apart here.
